Consider 57 compounds from PubChem BioAssay AID1458 (National Center for Advancing Translational Sciences (NCATS), 2008).

The whole screen tested about 210,000 compounds, of which about 5,900 (2.8%) were called active. Not shown: some 5% with an inconclusive outcome. Calls follow the shape of the dose curve; as a rule, active = well fitted activation curve with a large enough effect; inconclusive = small, poorly fitted or top-dose-only effect; inactive = no such curve, though single readings can be large or run the other way. This is a selection; strong and weak results do not stand in their true shares. Where no call is shown, the source filed none.
Potency is read from the fitted curve at half-maximal effect.

The experiment can be described thus: qHTS Assay for Enhancers of SMN2 Splice Variant Expression. Also: nearly all actives have a fitted effect of over 55% in size. As to activity change, positive = activation: % of control where 0% means no effect. The note with it: HEK293 SMN2-luciferase splicing reporter, luminescence, 30-36 h; activity change, positive = activation: at 46.1 µM (top of the series). The text has this:
NIH Chemical Genomics Center [NCGC] NIH Molecular Libraries Probe Production centers Network [MLPCN] MLPCN Grant: R03 MH084179-01 Assay Submitter (PI): Elliot Androphy NCGC Assay Overview: Spinal muscular atrophy (SMA) is caused by insufficient levels of the survival motor neuron protein SMN. The SMN locus on chromosome 5q13 contains two inverted copies of SMN called SMN1 and SMN2 which are 99% identical at the amino acid level. SMN1 is a fully functional protein and SMN2 skips exon 7 90% of the time. Skipping of exon 7 produces non-functional protein product. 10% of the SMN2 protein includes exon 7 and is fully functional. In the SMA disease state, mutations in the SMN1 locus are the cause of the disease state. Because only 10% of SMN2 is of the fully functional form, it is not sufficient to overcome the deficiency produced by the loss of the SMN1 product. A therapy that either increase the amount of SMN2 product made or to increase the inclusion of exon 7 has been proposed for the treatment of SMA. We have designed an assay to identify small molecules that can increase the amount of functional SMN2 product by appending a luciferase reporter gene after the native SMN2 gene, such that inclusion of exon 7 in the expressed product places the luciferase sequence in frame, thus generating functional luciferase enzyme.
NCGC Assay Protocol Summary: This screen utilizes a luciferase reporter gene assay, combining the promoter and splicing based cassettes in tandem with the major portion of the native SMN2 cDNA, and then transfected into HEK293 cells. Compounds that increase luciferase signal presumably enhance expression of the functional SMN2 splice variant. Passaging media contained DMEM w/ glutamax (+phenol red) 10% FCS, 1x pen/strep, 200 ug/ml hygro, 1x sodium pyruvate. Assay media contained DMEM w/ glutamax (-phenol red) 10% FCS, 1x pen strep, 1x pyruvate Sequence, Parameter, Value, Description (1) Cells, […], 2000 cells/well, 1536 TC treated White solid bottom plate (2) Time, 10-12 hours, 37C 5% CO2 (3) Compound, 23 nl, MLSMR Library (4) Control Compound, 23 nL, Sodium butyrate st 4.5mM (final) conc (5) Time, 30-36 hours, 37C 5% CO2 (6) Reagent, 3 ul, One Glo (TM) from Promega (7) Time, 5-15 minutes, Room temp (8) Detector, Viewlux: luminescent read, 60 second integration, high speed 2x binning Keywords: Spinal muscular atrophy, SMA, SMN2, high throughput screening, MLSMR, MLPCN, NIH Roadmap, qHTS and NCGC
(In qHTS, concentration-response curves come from the screen itself.)
On to `O=C1C2CCCN2C(c2cccnc2)N1c1cccc(Cl)c1` (configuration not stated), for which the activity change, positive = activation amounted to 36.8%.
On the same count and under the same terms, then `COc1cccc(C2=NOC(C(=O)N3CCC4(CC3)OCCO4)C2)c1` (configuration not stated), with 72.3%; and `COC(=O)c1c(C)n(Cc2ccco2)c2ccc(O)cc12`, with -36.4%.
On the same count and under the same terms, then `N=c1c2c(n(Cc3ccc(Cl)cc3Cl)c3c1CCC3)CCCC2`, with -51.1%.
For `CC(=O)c1c(O)c(C)c(O)c(Cc2c(O)c3c(c(C(=O)/C=C/c4ccccc4)c2O)OC(C)(C)C=C3)c1O`, the Potency entry is “inactive”.
Consider `O=C(Nc1ccc(F)cc1F)c1cccn(Cc2ccccc2)c1=O`, for which the “activity change, positive = activation” value was inactive: -77.5%.
Take `COc1ccc(CCC(=O)N2CCC3(CC2)OCCO3)cc1`: the activity change, positive = activation is 37.3%.
For `CNc1ccc2oc(C[C@@H]3OC4(CC[C@@H]3C)O[C@H]([C@@H](C)C(=O)c3ccc[nH]3)[C@H](C)C[C@H]4C)nc2c1C(=O)O` (some centres not stated), the Potency result was “inactive”.
In the case of `CCC1/C=C/C=CCC(C)C(O)[C@@](C)(O)C(=O)C(C)C(O)C(C)C(=O)C(C)C(O)C(C)C=CC(=O)O[C@H]2C(C)C(CC1)O[C@]1(CCC(C)C(CC(C)O)O1)C2C` (some centres not stated), the “activity change, positive = activation” value was inactive: -54%.
`COc1ccccc1OCCCn1cc(C(=O)c2ccco2)c2ccccc21`: the “activity change, positive = activation” value is inactive: -52%.
Same read-out and setting: then `Cc1nc2c(C(=O)N3CCC4(CC3)OCCO4)cnn2c(C)c1Cc1cccc(Cl)c1`, with -38.8%; and `C[N+]1(C)[C@@H]2CC(OC(=O)[C@@H](CO)c3ccccc3)C[C@@H]1[C@H]1O[C@H]12` (some centres not stated), with inactive: -0.838% [at 9.22 µM].
On the same count and under the same terms, then `CN(C)c1ccc(C=C2C(=O)NC(=O)NC2=O)cc1[N+](=O)[O-]`, with 23.5%.
On to `O[C@H]1C2CCC1C(N1CCCCC1)CC2` (some centres not stated), for which the activity change, positive = activation was found to be 36.8%.
Still for that read-out and setting: then `C=C1C([C@@H](O)C[C@H](C)C2O[C@@]3(CCCCO3)CC[C@H]2C)OC2CC[C@@]3(CC[C@@H](/C=C/[C@@H](C)C4CC(C)=C[C@]5(O4)O[C@H](C[C@@](C)(O)C(=O)O)CCC5O)O3)OC2[C@@H]1O` (some centres not stated), with -57.9%.
On to `COC(=O)[C@H]1C[C@@H]1[C@H](NP(=O)(c1ccccc1)c1ccccc1)c1ccccc1`, for which the Potency result was “inactive”.
On to `CC[C@@H]1CN2CCc3cc(OC)c(OC)cc3[C@H]2C[C@@H]1C[C@H]1NCCc2cc(OC)c(OC)cc21`, for which the “activity change, positive = activation” value is inactive: -53.7% [at 20.6 µM].
Turning to `NC(=O)c1ncn(C2OC(CO)C(O)C2O)n1` (configuration not stated), the Potency is active: 15.8 µM.
On to `NC(=O)CN1CC(c2ccccc2)CC1=O` (configuration not stated), for which the activity change, positive = activation was determined as 41.1%.
Take `CC(C)(C)C(=O)c1cn(CC(=O)NCc2ccco2)c2ccccc12`: the Potency was active: 14.1 µM.
For `CC(=O)[O][Hg][c]1ccccc1`, the Potency result is “inactive”.
As for `CC(=O)N1CCc2cc(S(=O)(=O)N3CCN(c4ccc(C)cc4)C(C)C3)ccc21` (configuration not stated), the “activity change, positive = activation” value was inactive: -30.8%.
In the case of `COc1ccc(Nc2ncc(C(=O)N3CCC4(CC3)OCCO4)c3ccccc23)cc1`, the activity change, positive = activation stood at 30.2%.
As for `O=C(CCCN1CCC2(CC1)C(=O)N(Cc1cccc(F)c1)CN2c1ccccc1)c1ccc(F)cc1`, the “activity change, positive = activation” value is inactive: -96.1%.
On the same count and under the same terms, with `Cc1c(C(c2ccc(F)cc2)c2c(O)c3ccccc3oc2=O)c(=O)n(-c2ccccc2)n1C` (configuration not stated) the figure was 34.4%; with `COc1ccc(C(=O)Nc2ccc(Cl)cc2C(=O)c2ccccc2)c(OC)c1`, inactive: -49.4%.
As for `CNC(=O)Oc1cccc(-c2cn3cc(OC(=O)NC)ccc3n2)c1`, the Potency was active: 12.6 µM.
For `CC(=O)N1CCN(c2ccc(OC[C@@H]3CO[C@@](Cn4ccnc4)(c4ccc(Cl)cc4Cl)O3)cc2)CC1`, the “activity change, positive = activation” value is inactive: -45.6% [at 20.6 µM].
With `CN(C)C(=O)Oc1ccc(OCc2cccc[n+]2C)cc1`, the activity change, positive = activation is -35.1%.
The same measure, in the same setting: then `O=C(c1ccccc1)c1cn(CC(=O)N2CCCc3ccccc32)c2ccccc12`, with 16%; and `CCC(=O)c1cn(Cc2ccc(C#N)cc2)c2ccccc12`, with 26.2%; and `C=CCc1ccc2c(c1)OCO2`, with 27.5%.
On the same count and under the same terms, with `Cc1ccc(N2CCN(C(=O)C3CCC(CNS(=O)(=O)c4ccc(Br)s4)CC3)CC2C)cc1` (configuration not stated) the figure was inactive: -35.3%.
Same read-out and setting: with `CC(=O)[O-].CC(=O)[O-].CC(=O)[O-].[Cr+3]` the figure was inactive: -16.4%.
For `CCCCCc1nc2ccccc2c(=O)n1-c1ccccc1[N+](=O)[O-]`, the activity change, positive = activation was -10.9%.
Still for that read-out and setting: then `CC(C)[C@]12O[C@H]1[C@@H]1O[C@]13[C@]1(O[C@H]1C[C@H]1C4=C(CC[C@@]13C)C(=O)OC4)[C@@H]2O`, with -94.6%.
With `Cc1nnc(SCc2nc3ccccc3c(=O)n2-c2ccccc2Cl)n1N`, the activity change, positive = activation was determined as 43%.
Consider `CCCn1c(C(=O)c2ccccc2)nc2ccccc21`, for which the “activity change, positive = activation” value is inactive: -24.3%.
In the case of `CC(C)(C)C(=O)NC1CCSC1=O` (configuration not stated), the activity change, positive = activation came to 33.9%.
As for `CC1OC(NCCc2ccccc2)C(O)C(O)C1O` (configuration not stated), the activity change, positive = activation was 33.4%.
On the same count and under the same terms, with `O=c1c2ccccc2nc(-c2ccco2)n1-c1nccs1` the figure was 27.4%; with `O=C(O)[C@@H]1[C@H](C(=O)O)[C@]2(Cl)C(Cl)=C(Cl)[C@@]1(Cl)C2(Cl)Cl`, inactive: -63.8% [at 9.22 µM].
As to `Cc1nc2c(c(C)nn2-c2ccccc2)c(C)c1CCC(=O)N1CCC2(CC1)OCCO2`, the activity change, positive = activation was 18.1%.
On the same count and under the same terms, with `CCCCCCn1c(=O)c(C(=O)Nc2ccncc2)c(O)c2ccccc21` the figure was -64.7%; with `CC1O[C@@H](O[C@@H]2C(O)C[C@H](O[C@@H]3C(O)C[C@@H](OC4CC[C@@]5(C)C6CC[C@]7(C)C(C8=CC(=O)OC8)CC[C@@]7(O)C6CC[C@@H]5C4)OC3C)OC2C)CC(O)[C@H]1O` (some centres not stated), inactive: -75.9%; with `CCCCn1c(O)c(C(C)=Nc2cccc(C(=O)O)c2)c(=O)[nH]c1=O`, 36.5%.
As to `CC1CC2(O)c3nonc3CCC2N1O` (configuration not stated), the activity change, positive = activation is 41.7%.
On the same count and under the same terms, then `CCOc1ccc(CCNC(=O)c2ccc(CS(=O)(=O)c3ccccc3C)o2)cc1OCC`, with inactive: -30.5%.
Consider `CCn1nc(-c2ccccc2)nc2c(=O)n(C)c(=O)nc1-2`, for which the Potency was active: 7.08 µM.
On the same count and under the same terms, then `C[C@@H]1C[C@@H]([C@H](O)CC2CC(=O)NC(=O)C2)C(=O)[C@@H](C)C1`, with “inactive”.
In the case of `CCC(C(=O)O)C1CCC(C)C(C(C)C(O)C(C)C(=O)C(CC)C2OC3(C=CC(O)[C@@]4(CC[C@](C)(C5CC[C@@](O)(CC)C(C)O5)O4)O3)C(C)CC2C)O1` (some centres not stated), the “activity change, positive = activation” value was inactive: -50.2%.
For the compound `COc1cc2c(cc1OC)C1C(=O)c3c(cc4c(c3O)C=CC(C)(C)O4)OC1CO2` (configuration not stated), the “activity change, positive = activation” value was inactive: -57.6%.
With `CCOc1ccc2nc(N3CCC(C(=O)N4CCC5(CC4)OCCO5)CC3)sc2c1`, the activity change, positive = activation was -66.3%.
In the case of `O=c1[nH]c(=S)[nH]c(O)c1N=Nc1ccc(OC(F)F)cc1`, the Potency is active: 12.6 µM.
Consider `COc1ccc(-c2cc(=NCCC(=O)O)c3cc(C)ccc3o2)cc1`, for which the activity change, positive = activation was determined as 150%.
Still for that read-out and setting: with `O=C(c1cc(C(=O)NCc2ccc(Cl)cc2)c(=O)n(Cc2ccc(Cl)cc2)c1)c1cc(F)ccc1O` the figure was -58.8%; with `COc1ccc(-c2cc(=Nc3cccc(C(=O)O)c3)c3cc(C)ccc3o2)cc1`, 93.3%.
